# Results reported in the supplement of paper PMC12067093, “Discovery and optimisation of a covalent ligand for TRIM25 and its application to targeted protein ubiquitination” (Chemical Science, 2025).
# Protein sequences, listed by entry. Tags and fused reporters are not part of them. Lines headed by an entry give the natural chain unless they say otherwise; changes in a name come on top.
# UniProt Q9HBE1: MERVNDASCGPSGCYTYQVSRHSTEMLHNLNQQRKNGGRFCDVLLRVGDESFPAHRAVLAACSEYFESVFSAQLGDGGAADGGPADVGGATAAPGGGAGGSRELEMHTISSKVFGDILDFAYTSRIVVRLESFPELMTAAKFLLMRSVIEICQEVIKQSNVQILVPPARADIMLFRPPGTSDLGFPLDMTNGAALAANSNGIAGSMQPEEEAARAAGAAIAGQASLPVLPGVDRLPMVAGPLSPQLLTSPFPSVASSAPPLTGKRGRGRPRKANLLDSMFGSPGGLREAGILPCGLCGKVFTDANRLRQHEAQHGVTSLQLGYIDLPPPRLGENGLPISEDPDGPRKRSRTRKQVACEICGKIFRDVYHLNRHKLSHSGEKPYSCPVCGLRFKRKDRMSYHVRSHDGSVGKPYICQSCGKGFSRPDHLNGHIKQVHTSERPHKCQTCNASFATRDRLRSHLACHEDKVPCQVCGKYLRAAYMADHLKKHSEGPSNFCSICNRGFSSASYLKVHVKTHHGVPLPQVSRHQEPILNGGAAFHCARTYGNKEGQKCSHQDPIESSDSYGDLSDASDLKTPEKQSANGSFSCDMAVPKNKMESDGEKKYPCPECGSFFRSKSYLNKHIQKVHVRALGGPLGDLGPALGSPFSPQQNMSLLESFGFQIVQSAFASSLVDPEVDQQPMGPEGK
# UniProt Q29RF7: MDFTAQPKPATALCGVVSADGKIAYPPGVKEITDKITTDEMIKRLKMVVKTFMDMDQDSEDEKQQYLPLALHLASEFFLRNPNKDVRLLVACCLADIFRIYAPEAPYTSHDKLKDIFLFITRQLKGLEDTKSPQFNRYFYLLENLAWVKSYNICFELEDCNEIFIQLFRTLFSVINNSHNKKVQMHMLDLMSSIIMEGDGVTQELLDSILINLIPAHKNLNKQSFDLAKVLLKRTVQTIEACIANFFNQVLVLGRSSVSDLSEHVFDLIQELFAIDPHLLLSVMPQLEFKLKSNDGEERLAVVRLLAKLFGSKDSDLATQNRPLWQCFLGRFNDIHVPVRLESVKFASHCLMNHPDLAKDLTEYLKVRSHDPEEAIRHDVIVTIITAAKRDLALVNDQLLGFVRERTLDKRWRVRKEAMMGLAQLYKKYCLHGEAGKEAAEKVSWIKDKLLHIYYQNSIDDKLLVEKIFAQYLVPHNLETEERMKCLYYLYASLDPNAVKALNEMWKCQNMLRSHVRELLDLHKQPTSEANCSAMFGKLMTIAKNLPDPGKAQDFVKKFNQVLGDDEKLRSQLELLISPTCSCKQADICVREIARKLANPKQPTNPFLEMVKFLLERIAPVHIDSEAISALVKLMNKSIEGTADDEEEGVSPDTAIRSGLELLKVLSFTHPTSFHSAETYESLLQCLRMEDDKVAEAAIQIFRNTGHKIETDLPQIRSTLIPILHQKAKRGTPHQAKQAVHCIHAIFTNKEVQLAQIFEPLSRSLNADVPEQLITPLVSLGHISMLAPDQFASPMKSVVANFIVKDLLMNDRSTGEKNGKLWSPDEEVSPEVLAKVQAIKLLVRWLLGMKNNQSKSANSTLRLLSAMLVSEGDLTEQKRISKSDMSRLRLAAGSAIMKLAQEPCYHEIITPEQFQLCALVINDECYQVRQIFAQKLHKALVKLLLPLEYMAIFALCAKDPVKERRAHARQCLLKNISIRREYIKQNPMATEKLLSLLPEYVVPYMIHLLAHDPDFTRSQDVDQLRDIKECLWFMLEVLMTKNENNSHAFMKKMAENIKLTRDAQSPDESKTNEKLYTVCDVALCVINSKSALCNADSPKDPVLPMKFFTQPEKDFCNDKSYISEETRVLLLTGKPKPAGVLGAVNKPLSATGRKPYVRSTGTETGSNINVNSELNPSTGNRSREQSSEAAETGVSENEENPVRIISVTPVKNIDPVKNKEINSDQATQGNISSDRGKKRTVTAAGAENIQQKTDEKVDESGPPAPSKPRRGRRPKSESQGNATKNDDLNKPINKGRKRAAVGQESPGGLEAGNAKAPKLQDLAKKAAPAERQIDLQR
# UniProt P12004, whole entry, looked up: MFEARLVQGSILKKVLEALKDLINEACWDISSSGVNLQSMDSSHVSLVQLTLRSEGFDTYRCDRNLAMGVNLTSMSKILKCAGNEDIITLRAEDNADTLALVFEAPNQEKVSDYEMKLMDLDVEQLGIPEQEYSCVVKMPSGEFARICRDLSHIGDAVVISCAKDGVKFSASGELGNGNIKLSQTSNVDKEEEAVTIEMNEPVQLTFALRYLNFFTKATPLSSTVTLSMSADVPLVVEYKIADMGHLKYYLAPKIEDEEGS
# UniProt P08559, whole entry, looked up: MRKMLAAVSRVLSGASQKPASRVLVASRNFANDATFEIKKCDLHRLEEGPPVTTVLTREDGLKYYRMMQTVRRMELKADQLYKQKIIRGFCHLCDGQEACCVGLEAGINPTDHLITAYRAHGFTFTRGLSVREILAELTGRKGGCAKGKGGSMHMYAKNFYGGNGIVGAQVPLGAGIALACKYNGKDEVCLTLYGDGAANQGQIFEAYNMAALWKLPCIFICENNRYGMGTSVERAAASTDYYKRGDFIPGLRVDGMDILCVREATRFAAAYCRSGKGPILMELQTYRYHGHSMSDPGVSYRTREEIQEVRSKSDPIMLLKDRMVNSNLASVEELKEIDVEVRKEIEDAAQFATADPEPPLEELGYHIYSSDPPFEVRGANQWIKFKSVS
# UniProt Q86U86, whole entry, looked up: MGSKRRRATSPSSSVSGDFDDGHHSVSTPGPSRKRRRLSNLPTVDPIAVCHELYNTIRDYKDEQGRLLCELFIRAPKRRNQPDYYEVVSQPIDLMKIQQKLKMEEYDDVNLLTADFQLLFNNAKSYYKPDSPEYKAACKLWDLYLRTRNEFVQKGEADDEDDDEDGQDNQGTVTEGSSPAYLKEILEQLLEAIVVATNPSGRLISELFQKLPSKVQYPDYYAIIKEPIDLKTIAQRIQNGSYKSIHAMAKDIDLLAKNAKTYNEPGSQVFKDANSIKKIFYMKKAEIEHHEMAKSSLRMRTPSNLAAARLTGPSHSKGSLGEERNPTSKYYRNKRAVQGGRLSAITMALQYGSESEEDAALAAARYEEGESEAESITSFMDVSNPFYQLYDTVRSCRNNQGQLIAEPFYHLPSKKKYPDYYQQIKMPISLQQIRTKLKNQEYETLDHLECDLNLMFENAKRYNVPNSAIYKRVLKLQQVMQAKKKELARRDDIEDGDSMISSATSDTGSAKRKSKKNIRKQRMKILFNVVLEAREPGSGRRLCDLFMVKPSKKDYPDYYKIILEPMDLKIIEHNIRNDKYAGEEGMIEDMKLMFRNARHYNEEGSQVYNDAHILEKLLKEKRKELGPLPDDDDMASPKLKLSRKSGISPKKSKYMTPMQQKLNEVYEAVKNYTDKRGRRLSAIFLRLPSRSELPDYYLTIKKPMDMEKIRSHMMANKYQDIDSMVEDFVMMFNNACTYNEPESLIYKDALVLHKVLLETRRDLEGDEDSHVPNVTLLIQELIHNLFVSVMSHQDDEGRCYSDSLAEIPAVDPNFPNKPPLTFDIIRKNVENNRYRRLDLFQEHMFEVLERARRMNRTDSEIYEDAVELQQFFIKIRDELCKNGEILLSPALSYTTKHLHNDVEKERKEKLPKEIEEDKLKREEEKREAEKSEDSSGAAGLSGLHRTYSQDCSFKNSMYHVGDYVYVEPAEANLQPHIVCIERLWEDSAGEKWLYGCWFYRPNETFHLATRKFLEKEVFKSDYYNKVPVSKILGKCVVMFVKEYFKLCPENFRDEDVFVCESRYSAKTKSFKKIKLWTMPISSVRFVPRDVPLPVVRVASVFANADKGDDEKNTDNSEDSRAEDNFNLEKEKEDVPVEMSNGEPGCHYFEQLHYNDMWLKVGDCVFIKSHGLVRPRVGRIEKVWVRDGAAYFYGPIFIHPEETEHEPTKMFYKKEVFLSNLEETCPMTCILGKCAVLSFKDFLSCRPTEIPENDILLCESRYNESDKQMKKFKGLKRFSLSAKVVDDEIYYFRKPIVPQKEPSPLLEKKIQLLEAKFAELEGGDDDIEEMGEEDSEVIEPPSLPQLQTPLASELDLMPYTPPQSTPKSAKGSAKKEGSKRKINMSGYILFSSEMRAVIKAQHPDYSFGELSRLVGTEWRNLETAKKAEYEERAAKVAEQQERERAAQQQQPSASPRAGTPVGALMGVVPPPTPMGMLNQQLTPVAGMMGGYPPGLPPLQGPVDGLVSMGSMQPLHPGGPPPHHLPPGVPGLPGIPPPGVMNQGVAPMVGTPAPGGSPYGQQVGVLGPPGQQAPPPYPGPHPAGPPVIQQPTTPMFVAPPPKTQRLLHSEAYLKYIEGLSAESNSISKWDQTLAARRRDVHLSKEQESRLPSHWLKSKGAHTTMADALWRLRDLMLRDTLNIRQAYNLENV
# UniProt P09874, whole entry, looked up: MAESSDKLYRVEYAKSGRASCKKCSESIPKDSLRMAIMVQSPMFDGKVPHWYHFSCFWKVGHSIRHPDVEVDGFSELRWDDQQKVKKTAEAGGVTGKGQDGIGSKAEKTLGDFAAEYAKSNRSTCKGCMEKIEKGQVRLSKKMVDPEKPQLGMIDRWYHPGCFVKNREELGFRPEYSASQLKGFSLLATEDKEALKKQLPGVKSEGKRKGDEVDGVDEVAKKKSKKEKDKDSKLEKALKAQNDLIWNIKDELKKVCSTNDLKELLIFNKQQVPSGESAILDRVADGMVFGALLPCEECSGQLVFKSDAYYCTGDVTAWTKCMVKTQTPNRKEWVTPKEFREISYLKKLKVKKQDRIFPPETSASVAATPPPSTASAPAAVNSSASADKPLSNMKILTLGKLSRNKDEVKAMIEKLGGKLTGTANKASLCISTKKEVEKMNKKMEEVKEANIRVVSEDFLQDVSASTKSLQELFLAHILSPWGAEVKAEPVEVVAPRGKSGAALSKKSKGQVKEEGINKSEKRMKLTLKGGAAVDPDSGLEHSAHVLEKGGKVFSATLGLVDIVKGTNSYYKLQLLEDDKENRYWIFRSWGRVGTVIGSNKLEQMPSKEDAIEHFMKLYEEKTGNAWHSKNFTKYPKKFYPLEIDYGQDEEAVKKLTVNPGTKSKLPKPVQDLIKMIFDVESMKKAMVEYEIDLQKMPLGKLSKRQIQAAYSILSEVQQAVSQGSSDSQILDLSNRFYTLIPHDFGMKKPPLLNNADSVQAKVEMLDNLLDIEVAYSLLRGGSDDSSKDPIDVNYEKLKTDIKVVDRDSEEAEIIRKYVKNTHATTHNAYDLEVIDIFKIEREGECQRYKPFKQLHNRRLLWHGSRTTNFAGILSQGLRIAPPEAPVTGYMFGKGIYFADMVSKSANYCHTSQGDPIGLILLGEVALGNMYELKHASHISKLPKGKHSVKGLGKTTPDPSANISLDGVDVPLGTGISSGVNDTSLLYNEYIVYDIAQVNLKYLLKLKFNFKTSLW
# UniProt Q9H0N5: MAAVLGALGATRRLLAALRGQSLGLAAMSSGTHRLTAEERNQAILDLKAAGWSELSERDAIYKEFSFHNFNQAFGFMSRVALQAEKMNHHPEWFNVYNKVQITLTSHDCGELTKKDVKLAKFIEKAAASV
# UniProt P49585: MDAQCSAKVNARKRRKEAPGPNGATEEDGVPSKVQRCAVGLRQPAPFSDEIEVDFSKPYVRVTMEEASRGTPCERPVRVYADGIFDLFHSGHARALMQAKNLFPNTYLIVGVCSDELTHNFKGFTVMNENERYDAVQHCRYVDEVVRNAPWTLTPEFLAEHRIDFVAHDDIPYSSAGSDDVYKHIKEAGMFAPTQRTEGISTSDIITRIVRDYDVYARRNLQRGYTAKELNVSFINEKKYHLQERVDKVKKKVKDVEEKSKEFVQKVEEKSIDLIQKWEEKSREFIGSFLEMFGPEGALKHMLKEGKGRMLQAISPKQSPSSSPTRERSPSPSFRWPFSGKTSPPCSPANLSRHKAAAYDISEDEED
# UniProt Q6L8Q7: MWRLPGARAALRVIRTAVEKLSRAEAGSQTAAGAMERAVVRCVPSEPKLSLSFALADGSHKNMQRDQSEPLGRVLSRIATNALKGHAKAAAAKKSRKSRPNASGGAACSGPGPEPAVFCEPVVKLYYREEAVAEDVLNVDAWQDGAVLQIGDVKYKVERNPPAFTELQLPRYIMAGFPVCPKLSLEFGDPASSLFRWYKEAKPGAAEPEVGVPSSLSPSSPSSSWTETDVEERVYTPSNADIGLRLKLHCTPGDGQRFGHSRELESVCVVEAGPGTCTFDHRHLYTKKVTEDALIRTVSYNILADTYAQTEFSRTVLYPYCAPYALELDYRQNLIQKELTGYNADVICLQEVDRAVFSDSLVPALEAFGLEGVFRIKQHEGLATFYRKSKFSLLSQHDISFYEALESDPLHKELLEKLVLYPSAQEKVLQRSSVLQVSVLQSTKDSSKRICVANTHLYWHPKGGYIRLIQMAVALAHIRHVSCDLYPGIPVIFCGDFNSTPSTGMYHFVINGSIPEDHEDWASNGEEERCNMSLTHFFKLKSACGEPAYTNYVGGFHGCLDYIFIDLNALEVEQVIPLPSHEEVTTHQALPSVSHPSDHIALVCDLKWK
# The other results are listed elsewhere or left out.
# Compound: CC1Cc2ccccc2N1C(=O)C1CCCN(C1)C(=O)CCl (mixture of isomers) [TRIM25 ligand 11 (diastereomer mixture)]
# Assay: probe-labelled cysteine peptide fold change vs DMSO (competition) (log2 fold change); higher = less target engagement (more negative = stronger competition)
# Details: THP-1, incubation time: 4 h
# 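Also: competitive chemoproteomic profiling in live THP-1 cells with an iodoacetamide desthiobiotin (IA-DTB) probe, comparing probe-labelled peptide intensities in compound-treated cells against DMSO-treated controls.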
Target,probe-labelled cysteine peptide fold change (10 µM),probe-labelled cysteine peptide fold change (50 µM)
PCNT_O95613_1119_DQVLSLSHEIEECRSELEVLQQR (UniProt O95613),0.183,-0.176
PDCD11_Q14690_81_EKFEILSVESLCEGMR (UniProt Q14690),-0.174,-0.175
PAXBP1_Q9Y5B6_457_GYVQDLLECFSEK (UniProt Q9Y5B6),0.0666,0.156
PATZ1_Q9HBE1_610_KYPCPECGSFFR (UniProt Q9HBE1),-0.0973,0.0311
PDS5A_Q29RF7_1093_SALCNADSPKDPVLPMK (UniProt Q29RF7),-0.0248,-0.151
PDCD4_Q53EL6_227_LLSDLCGTVMSTTDVEK (UniProt Q53EL6),-0.0152,0.0253
PDLIM1_O00151_283_HPECYVCTDCGTNLK (UniProt O00151),0.0453,-0.0363
PCNA_P12004_81_CAGNEDIITLR (UniProt P12004),0.12,0.0664
PDHA1_P08559_273_FAAAYCR (UniProt P08559),0.138,0.012
PCBP3_P57721_86_INISEGNCPER (UniProt P57721),0.0565,-0.0133
PCM1_Q15154_1867_NDQNNCPVK (UniProt Q15154),-0.0454,-0.0479
PBRM1_Q86U86_450_NQEYETLDHLECDLNLMFENAK (UniProt Q86U86),7.74e-06,-0.0433
PDLIM4_P50479_258_CGHGIVGTIVK (UniProt P50479),-0.216,-0.128
PDP1_Q9P0J1_275_VAFSGATACVAHVDGVDLHVANTGDSR (UniProt Q9P0J1),0.157,0.223
PDS5A_Q29RF7_1084_LYTVCDVALCVINSK (UniProt Q29RF7),-0.0741,-0.0435
PBK_Q96KB5_70_INPICNDHYR (UniProt Q96KB5),0.0146,0.0264
PARP1_P09874_429_ASLCISTK (UniProt P09874),-0.00943,0.0281
PDXDC1_Q6P996_361_HACQLSQR (UniProt Q6P996),0.0732,0.066

# Reformatted with tabs: entries from further up
Target	probe-labelled cysteine peptide fold change (10 µM)	probe-labelled cysteine peptide fold change (50 µM)
PATZ1_Q9HBE1_610_KYPCPECGSFFR (UniProt Q9HBE1)	-0.0973	0.0311
PDS5A_Q29RF7_1084_LYTVCDVALCVINSK (UniProt Q29RF7)	-0.0741	-0.0435

# Later entries.

Target,probe-labelled cysteine peptide fold change (10 µM),probe-labelled cysteine peptide fold change (50 µM)
PCBD2_Q9H0N5_109_VQITLTSHDCGELTKK (UniProt Q9H0N5),-0.138,-0.114
PCID2_Q5JVF3_68_CTYAVGNHDFIEAYK (UniProt Q5JVF3),0.186,0.315
PDIA3_P30101_60_ISDTGSAGLMLVEFFAPWCGHCK (UniProt P30101),-0.0971,-0.283
PDPK1_O15530_181_KIGSFDETCTR (UniProt O15530),-0.0663,-0.0873
PDE1A_P54750_406_EAELGLPFSPLCDR (UniProt P54750),0.101,0.000655
PCYT1A_P49585_139_GFTVMNENERYDAVQHCR (UniProt P49585),-0.365,-0.217
PDF_Q9HBH1_222_IIQHEMDHLQGCLFIDK (UniProt Q9HBH1),-0.0352,0.0675
PBLD_P30039_24_GNPAAVCLLENELDEDMHQK (UniProt P30039),-0.0652,-0.114
PARP1_P09874_56_VPHWYHFSCFWK (UniProt P09874),0.0175,-0.178
PDLIM2_Q96JY6_160_SFQSLACSPGLPAADR (UniProt Q96JY6),-0.11,-0.182
PDIA6_Q15084_291_TCEEHQLCVVAVLPHILDTGAAGR (UniProt Q15084),0.055,0.024
PCYT1A_P49585_37_CAVGLR (UniProt P49585),-0.0464,-0.0516
PDCL3_Q9H2J4_127_QGIPLCALINQHLSGLAR (UniProt Q9H2J4),0.249,0.149
PDE12_Q6L8Q7_180_YIMAGFPVCPK (UniProt Q6L8Q7),-0.131,-0.214
PAXX_Q9BUH6_9_MDPLSPPLCTLPPGPEPPR (UniProt Q9BUH6),-0.538,0.177
PDS5A_Q29RF7_1079_LYTVCDVALCVINSK (UniProt Q29RF7),-0.0956,0.000329
PDCL_Q13371_35_CAPASSSVPAEAELAGEGISVNTGPK (UniProt Q13371),-0.049,-0.328
PCYOX1_Q9UHG3_462_LYYLNGIECAASAMEMSAIAAHNAALLAYHR (UniProt Q9UHG3),0.108,0.171
